Experimental data as given in article PMC9507969.
Results are given in words; binding and its absence hold for the method and conditions named. A result given as binding can be weak or reduced; the word gives no strength.

The chains behind the UniProt entries cited, without tags or fusion partners. Where a name states a change or a piece, a line headed by the entry shows the natural chain unless it says otherwise.
UniProt P05740: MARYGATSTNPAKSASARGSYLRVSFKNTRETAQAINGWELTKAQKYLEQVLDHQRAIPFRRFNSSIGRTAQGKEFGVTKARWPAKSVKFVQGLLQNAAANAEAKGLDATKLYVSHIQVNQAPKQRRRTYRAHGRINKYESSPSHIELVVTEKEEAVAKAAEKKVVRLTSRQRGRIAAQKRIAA

Molecular target: ribosomal protein L17 (S. cerevisiae (endogenous in the yeast strain)) (UniProt P05740)
Experiment: cross-linking; pre-60S particles purified via Arx1-TAP from drg1-18 (TEV eluate) incubated with 150 µg purified Drg1 and 1 mM ATPγS, cross-linked with 1.5 mM DSS or BS3 (isotopically labeled), 30 minutes, 30 °C; LC-MS/MS, xQuest/xProphet; both purified

binding: binds
B1: Drg1 (diazaborine resistance gene 1), wild type, purified (enzyme, UniProt P32794 1-780)
chain: MAPKSSSSGSKKKSSASSNSADAKASKFKLPAEFITRPHPSKDHGKETCTAYIHPNVLSSLEINPGSFCTVGKIGENGILVIARAGDEEVHPVNVITLSTTIRSVGNLILGDRLELKKAQVQPPYATKVTVGSLQGYNILECMEEKVIQKLLDDSGVIMPGMIFQNLKTKAGDESIDVVITDASDDSLPDVSQLDLNMDDMYGGLDNLFYLSPPFIFRKGSTHITFSKETQANRKYNLPEPLSYAAVGGLDKEIESLKSAIEIPLHQPTLFSSFGVSPPRGILLHGPPGTGKTMLLRVVANTSNAHVLTINGPSIVSKYLGETEAALRDIFNEARKYQPSIIFIDEIDSIAPNRANDDSGEVESRVVATLLTLMDGMGAAGKVVVIAATNRPNSVDPALRRPGRFDQEVEIGIPDVDARFDILTKQFSRMSSDRHVLDSEAIKYIASKTHGYVGADLTALCRESVMKTIQRGLGTDANIDKFSLKVTLKDVESAMVDIRPSAMREIFLEMPKVYWSDIGGQEELKTKMKEMIQLPLEASETFARLGISAPKGVLLYGPPGCSKTLTAKALATESGINFLAVKGPEIFNKYVGESERAIREIFRKARSAAPSIIFFDEIDALSPDRDGSSTSAANHVLTSLLNEIDGVEELKGVVIVAATNRPDEIDAALLRPGRLDRHIYVGPPDVNARLEILKKCTKKFNTEESGVDLHELADRTEGYSGAEVVLLCQEAGLAAIMEDLDVAKVELRHFEKAFKGIARGITPEMLSYYEEFALRSGSSS
